Measured values: PMC2527678
Where a chain is given by its changes, count along the chain named. The exact form of at least one protein or probe is not confirmed. Protein sequences can lack the tags named with them.

Legend:
Assay in all cases: EMSA
Adr1 DBD wild type = biological target: T1, Adr1 DBD wild type (UniProt P07248); details: apparent equilibrium constant; EMSA as in Thukral et al. [17]; recombinant protein; residues 17-160
T1 sequence (looked up): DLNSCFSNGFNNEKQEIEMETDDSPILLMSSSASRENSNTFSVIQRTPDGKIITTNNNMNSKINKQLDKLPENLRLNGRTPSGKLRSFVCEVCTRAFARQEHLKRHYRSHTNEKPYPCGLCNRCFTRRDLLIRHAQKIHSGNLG

Adr1 DBD S98A = biological target: T2, Adr1 DBD S98A (UniProt P07248); details: apparent equilibrium constant; EMSA as in Thukral et al. [17]; recombinant protein; residues 17-160
T2 sequence (looked up): T1 sequence (looked up) with S82A

Adr1 DBD S98D = biological target: T3, Adr1 DBD S98D (UniProt P07248); details: apparent equilibrium constant, approximately 10-fold reduced; EMSA as in Thukral et al. [17]; recombinant protein; residues 17-160
T3 sequence (looked up): T1 sequence (looked up) with S82D

Work on “GCATTGACTAAGTTCTCCAACTTATAAGTTGGAGATGAATCAGTTACG (double strand) [ADH2 promoter UAS1 probe]” yielded a Kd (Adr1 DBD wild type) of 20 nM, a Kd (Adr1 DBD S98A) of 20 nM and a Kd (Adr1 DBD S98D) of 200 nM.
